Screening data, single-dose tests

Protein sequences, listed by entry. Tags and fused reporters are not part of them. Residues count along the entry.
UniProt Q4DA54, 1-478: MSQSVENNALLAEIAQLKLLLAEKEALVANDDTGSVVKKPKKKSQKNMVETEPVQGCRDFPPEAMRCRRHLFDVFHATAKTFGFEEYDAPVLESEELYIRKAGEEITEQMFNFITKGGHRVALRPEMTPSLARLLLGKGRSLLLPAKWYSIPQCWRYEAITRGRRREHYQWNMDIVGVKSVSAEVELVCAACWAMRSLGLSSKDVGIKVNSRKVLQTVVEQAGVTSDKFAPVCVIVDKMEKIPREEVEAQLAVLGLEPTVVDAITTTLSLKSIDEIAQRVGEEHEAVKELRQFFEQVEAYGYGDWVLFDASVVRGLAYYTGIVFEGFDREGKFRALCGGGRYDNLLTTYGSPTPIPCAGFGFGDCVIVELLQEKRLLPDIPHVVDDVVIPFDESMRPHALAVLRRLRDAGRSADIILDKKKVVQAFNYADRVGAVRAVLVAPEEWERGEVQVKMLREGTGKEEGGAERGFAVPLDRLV
UniProt Q8IDJ8, 1-583: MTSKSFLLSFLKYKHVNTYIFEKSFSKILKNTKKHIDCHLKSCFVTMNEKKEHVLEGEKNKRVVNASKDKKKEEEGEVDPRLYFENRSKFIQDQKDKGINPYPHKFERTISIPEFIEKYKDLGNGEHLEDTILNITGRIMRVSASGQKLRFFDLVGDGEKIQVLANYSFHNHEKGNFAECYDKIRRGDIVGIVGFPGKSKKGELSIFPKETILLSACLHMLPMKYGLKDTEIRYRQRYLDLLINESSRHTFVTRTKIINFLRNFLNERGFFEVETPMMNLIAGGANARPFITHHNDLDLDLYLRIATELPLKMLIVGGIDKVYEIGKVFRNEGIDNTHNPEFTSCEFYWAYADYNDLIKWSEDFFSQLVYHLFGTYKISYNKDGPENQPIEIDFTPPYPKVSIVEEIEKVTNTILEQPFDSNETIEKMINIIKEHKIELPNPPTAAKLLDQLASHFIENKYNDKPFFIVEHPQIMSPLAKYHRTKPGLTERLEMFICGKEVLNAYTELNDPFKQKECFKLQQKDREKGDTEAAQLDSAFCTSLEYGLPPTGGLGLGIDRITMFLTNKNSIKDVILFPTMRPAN

Values are the deposited “Percent Effect”, in %.
The record does not define 0% and 100%; most values in the screen are far below 50% and negative numbers occur (in some assays of this library far below -100).
Compounds were drawn at random from those tested, without regard to their results.

TcHisRS: 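Enzyme assay of histidyl-tRNA synthetase; the read-out is not stated. Target: Histidine-tRNA ligase, Trypanosoma cruzi CL Brener (UniProt Q4DA54). Compounds at 30 µM. The record gives no direction; compounds that gave an IC50 in retests scored well above the rest, so higher reads as stronger inhibition. Size under these conditions: about 69,000 compounds, about 31 of them at 50% or above in at least one test.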
PfKRS1: 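Enzyme assay of the cytosolic lysyl-tRNA synthetase in 384-well plates, read by luminescence. Target: Lysine-tRNA ligase, Plasmodium falciparum 3D7 (UniProt Q8IDJ8). Compounds at 30 µM. Higher reads as stronger inhibition, judged from the few compounds that gave an IC50. About 69,000 compounds were tested under these conditions; 0.071% (about 49) showed 50% or more at least once.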

compound | TcHisRS | PfKRS1
CN1CC(C(=O)NCCc2ccc3c(c2)OCCO3)CC1=O (centres undefined) | 4.478 | 2.474
Cc1nn(C)c(C)c1CC(=O)NCC1(C(N)=O)CCOCC1 | 9.045 | -2.308
CN(Cc1ccncc1)C1CC2(CCN(c3ncc(F)cn3)CC2)C1 | 9.195 | 6.388
c1ccc(-c2ncc3c(n2)C2(CCN(CC4CC4)C2)COC3)cc1 (centres undefined) | 2.97 | 3.195
Cc1ccc(C(=O)N[C@H]2CN(CCO)C[C@@H]2C2CC2)cc1Cl | 5.759 | 0.1119
CS(=O)(=O)NC[C@]12COC[C@H]1CN(CC1CCC1)C2 | 12.7 | 5.543
O=C(Nc1cccnc1)c1nn(C2CCS(=O)(=O)C2)c2c1CCCC2 (centres undefined) | 2.484 | 3.588
Cc1ccc(-c2c(-c3ccccc3)ncn2CCCN2CCOCC2)o1 | 3.911 | 7.273
Cc1ccc(-c2nnc(CNCCn3cccn3)o2)cc1 | 1.143 | -0.171
CCn1ncc2c1CCCC2NCc1cscn1 (centres undefined) | 11.84 | -2.013
CCOC(C)c1nc(COc2nc(C)no2)cs1 (centres undefined) | 8.28 | 2.388
Cc1cccc(CN2CCCC[C@H]3CN(c4ncccn4)C[C@H]32)c1 | 6.202 | -2.017
COC(=O)c1ccc2ccn(CC3CCNC3)c(=O)c2c1 (centres undefined) | 1.653 | 8.381
CCc1nsc(NC2CC(=O)N(C(C)(C)C)C2)n1 (centres undefined) | 1.948 | 4.396
CCC(=O)N1CCOC(c2cc(Nc3nncs3)cc(C)n2)C1 (centres undefined) | 7.91 | 2.982
Brc1cnc(NCCCOC2CCOCC2)nc1 | 3.175 | 5.951
CN(Cc1ccco1)[C@@H]1CN(Cc2ccco2)[C@@H]2CCCO[C@H]12 | 8.197 | -1.466
O=C(NCC1CCN(Cc2cc3ccccc3[nH]2)C1)c1ccsc1 (centres undefined) | 10.84 | 7.476
O=C(c1ccc2c(c1)CCC2)N1CCC(c2n[nH]c(C3CC3)n2)CC1 | -1.127 | -0.5045
COc1ccc(CN2CCN(Cc3nccn3C)C(C)C2)cc1F (centres undefined) | 12.05 | 1.939
Cc1cc(C)c(CNC(=O)NCC2CCCO2)c(=O)[nH]1 (centres undefined) | 4.183 | -7.24
N#Cc1cccnc1N1CCCN(CC(=O)N2CCNC(=O)C2)CC1 | 9.244 | 1.351
O=C(CCNC(=O)c1ccoc1)Nc1ccccc1F | 0.8403 | 11.63
CCOCCNC(=O)CCC1CCCO1 (centres undefined) | 9.524 | -6.14
CCn1c(C2CCCN(Cc3ccc(F)cc3Cl)C2)nn(C)c1=O (centres undefined) | 0 | -1.212
Cc1nn(C)cc1CN1CCc2c(nc(-c3ccccn3)[nH]c2=O)C1 | -7.447 | 1.288
Cn1c(CCC(=O)N2CCCC3(CNC(=O)O3)C2)nc2cccnc21 (centres undefined) | -1.288 | 2.126
Cn1ccc(C(=O)N2CCN(c3ncccn3)CC2)cc1=O | -0.7519 | 3.42
CC(=O)N1CC[C@@]2(O)CCCC[C@H]2[C@@H]1c1ccccc1 | 0 | -4.37
Cc1cc(C)n(CC(C)NCc2nncn2C2CCCCC2)n1 (centres undefined) | 3.175 | -0.1485
O=C(c1ccc2c(c1)[nH]c(=O)n2C1CCCC1)N1CCC1 | 2.299 | 4.144
Cc1nc2cc(C(=O)N(CCC#N)CC3CCCO3)ccc2[nH]1 (centres undefined) | 7.955 | 1.549
Cc1cc(S(=O)(=O)Nc2onc(C)c2C)c(C)s1 | 3.448 | -3.846
COc1cc(CN2CCCCCC2c2cccs2)cc(OC)c1OC (centres undefined) | 5.528 | 2.849
COCCN(C)C[C@@H]1CN(C(=O)c2ccc(SC)cc2)C[C@@H]1CO | 4.523 | 1.826
Cc1ccc(-c2ccnc(N[C@H]3COC[C@@H]3N3CCCCC3)n2)c(C)n1 | 1.932 | 4.122
COc1ccc(OCCN(C)c2cc(C)nc(N)n2)cc1 | 9.392 | 3.862
CCc1n[nH]c(C2CN(Cc3nnc(C4CC4)o3)CCO2)n1 (centres undefined) | 9.714 | -0.2762
CC(=O)N1CCN([C@@H]2CC[C@@H](NC(=O)c3cc(C)cs3)[C@H]2O)CC1 | 11.11 | 3.511
CSCc1ccc(N2CCC(C(O)CC(C)C)CC2)nc1 (centres undefined) | 7.447 | -5.788
CN(CC(=O)N1CCCC1)Cc1nc2c(cnn2C)c(=O)[nH]1 | -0.5618 | -0.463
C[C@H](NC(=O)C1CC1)c1nc2cc(-c3ccc(F)cc3)ncn2n1 | 2.985 | 0.3149
COc1cn(CC(N)=O)c(CSc2nccc(C)n2)cc1=O | 11.06 | -0.6862
N#CCCSc1sc2c(O)cc(O)nc2c1C#N | 6.936 | 7.451
CNC(=O)c1cc2c(nc1NCC(C)C)CCN(c1ccncn1)CC2 | 4.878 | -2.192
CCC[C@@H]1CN(C(=O)CCc2ccco2)C[C@H]1NS(C)(=O)=O | 3.247 | 0.04996
C[C@H]1CN(CC2CCOCC2)C[C@@]12CCN(Cc1cccnc1)C2=O | 8.173 | 6.188
Cn1ncc(N2CCOCC2)c(Cl)c1=O | 7.792 | 0.08436
Cc1nc(COC[C@H]2CCC[C@]23CN(C2CCOC2)CCO3)cs1 (some centres undefined) | 0.8403 | -5.125
COc1ccc(C(=O)N(C)Cc2c(C)noc2C)cn1 | 3.468 | 0.9128
Cc1ccc(S(=O)(=O)N2C[C@@H]3C[C@@H](NC(=O)C(C)(C)C)[C@@H]3C2)cc1 | 2.703 | 6.476
COc1cccc(-c2cc(C(=O)Nc3nc[nH]n3)[nH]n2)c1 | -16 | 7.044
O=C(O)c1ccc(F)c(S(=O)(=O)Nc2ccc(-n3cccn3)c(Cl)c2)c1 | 5.394 | 11.35
Cc1ccc(-c2nc(CN3CCOCS3(=O)=O)c(C)o2)cc1 | 3.279 | 2.305
COc1cccnc1NC(=O)COc1c(C)cccc1C | 9.852 | 4.26
CCc1nc(CN2CCCC(N(C)CCn3cncn3)C2)no1 (centres undefined) | 3.191 | 3.941
COCc1nn(Cc2ccc(Br)s2)c(=O)o1 | 3.483 | -0.8764
Cc1cc2c(=O)n(CCSc3cnn[nH]3)cnc2s1 | 3.483 | 4.261
Cc1cccc(OCC(O)CNCc2c(C)nn(C)c2N(C)C)c1 (centres undefined) | 6.726 | 2.992
COCCNc1ccccc1CNC(=O)NCc1ccc(C)s1 | 3.061 | 0.6843
CC(C)n1c(C2CCCN(CC(N)=O)C2)nc2ccccc21 (centres undefined) | -5.435 | 0.6645
CN(C)C(=O)c1cccc(CCNc2ccccc2S(C)(=O)=O)c1 | 5.102 | 3.72
CC(Cc1ccc2c(c1)OCO2)c1cn(CCc2c[nH]cn2)nn1 (centres undefined) | 13.16 | 2.46
O=C(Nc1cccc(OCC(F)F)n1)c1ccncc1 | 8.19 | 5.313
Cc1ccc2c(c1)C(=O)NCC1(CCN(C(=O)c3scnc3C)CC1)O2 | 7.491 | -0.1597
Cc1nc(NCCc2ccc(Cl)cc2)cc(C(=O)N2CCCCC2)n1 | 2.51 | -7.244
CCOc1cc(CN(C)CCCC#N)ccc1OC(F)F | 4.036 | 0.9574
O=C(CCN1CCN(c2ccc3nncn3n2)CC1)N1CCCCC1 | 4 | -0.5256
CCc1noc(C(C)N2CCOCC2)n1 (centres undefined) | 0.3774 | 2.763
CC(C)(C#N)C(=O)Nc1nccn1Cc1ccc(Br)cc1 | 5.747 | 0.658
CC1CC(=O)c2cc(C(=O)N3CCN(C)CC3)c(=O)[nH]c2C1 (centres undefined) | 8.696 | 5.83
COCCO[C@H]1CCN(c2cc(OC)ncn2)[C@H]1Cc1cnn(C)c1 | 2.186 | 3.189
CCCc1nc(CN2CCOC(Cn3cncn3)C2)no1 (centres undefined) | 1.128 | -2.299
CN(C)c1cc(C2CCN(C(=O)c3cnn(C)c3)CC2)ccn1 | 2.273 | -1.366
CCn1ccc(C(=O)N(C)Cc2cnn(-c3cccc(OC)c3)c2)n1 | 3.896 | 7.363
Cc1ccc2cc(CNCCCN3CCOCC3)c(=O)[nH]c2c1C | 10.64 | 2.699
Cc1cc(C)nc(N2CCC(c3ccnc(N(C)C)n3)CC2)n1 | 5.747 | 0.1752
Cc1nn(C2CCS(=O)(=O)C2)c(O)c1CCc1ccccc1 (centres undefined) | -6.433 | 5.455
Cc1nc(CN2C[C@@H]3CN(c4ncc(F)cn4)C[C@@H]3C2=O)cs1 | 3.743 | 6.253
CN(CCc1ccccc1)C(=O)CN1C(=O)OC[C@@H]1c1ccccc1 | 5.422 | -3.299

Source: ChEMBL document CHEMBL3988442, “University of Dundee, Small-Polar-MMV Screening Library” (2021).